Taken from: PubChem BioAssay AID1224826 (NIAID, 2016)

- Aim: 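Genes that change LPS-induced Tnf promoter activity in mouse macrophages when knocked down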 (primary screen)
- Cell system: RAW264.7 G9 macrophages from mouse bearing reporters for p65 (GFP) and the Tnf promoter (mCherry)
- Reagents: siRNA pool against mouse genes, 100 nM
- Time to read-out: 16 h of LPS stimulation, after 2 days of siRNA transfection
- Conditions: bacterial lipopolysaccharide (Salmonella minnesota R595), 10 ng/ml
- Measured: 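Nuclear mCherry signal of the Tnf promoter reporter measured by imaging after background removal, scaled to each plate median and turned into robust z-scores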
- Scale: Tnf reporter robust z-score: higher = stronger Tnf promoter reporter signal after LPS
- Hit rule: 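Called active when robust z-score is at most -1.3, matching the median of the Tlr4 knock-down control, or over 3; control wells and wells with under 50 cells never active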
- Meaning of the calls: active = Tnf reporter clearly lowered or raised; inactive = no clear change in Tnf reporter
In all, the deposit lists about 17,000 reagents; below is a random part of them. In the full data, about 1,110 (6.6%) were called active. 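Active means lowered or raised reporter signal; replicate intensities are raw and not normalised per plate.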 Further read-outs or replicates are left out here.

{"gene":"Ift70a1","fewer than 50 cells in well":"fewer than 50 cells per well; well left out of calls","Call":"inactive"}
{"gene":"Spats1","Tnf reporter robust z-score":1.84,"fewer than 50 cells in well":"enough cells in well","Call":"inactive"}
{"gene":"Cyld","Tnf reporter robust z-score":2.76,"fewer than 50 cells in well":"enough cells in well","Call":"inactive"}
{"gene":"Amd2","Tnf reporter robust z-score":-1.22,"fewer than 50 cells in well":"enough cells in well","Call":"inactive"}
{"gene":"Erp44","Tnf reporter robust z-score":0.25,"fewer than 50 cells in well":"enough cells in well","Call":"inactive"}
{"gene":"Ccl1","Tnf reporter robust z-score":-0.8,"fewer than 50 cells in well":"enough cells in well","Call":"inactive"}
{"gene":"Mynn","Tnf reporter robust z-score":-0.64,"fewer than 50 cells in well":"enough cells in well","Call":"inactive"}
{"gene":"Slc6a13","fewer than 50 cells in well":"fewer than 50 cells per well; well left out of calls","Call":"inactive"}
{"gene":"Eid1","Tnf reporter robust z-score":-0.22,"fewer than 50 cells in well":"enough cells in well","Call":"inactive"}

Only “Tnf reporter robust z-score”, for 2 of the entries above:
Cyld	2.76
Amd2	-1.22

Continued.
{"gene":"Bmerb1","fewer than 50 cells in well":"fewer than 50 cells per well; well left out of calls","Call":"inactive"}
{"gene":"Vmn1r4","Tnf reporter robust z-score":1.9,"fewer than 50 cells in well":"enough cells in well","Call":"inactive"}
{"gene":"Pdyn","Tnf reporter robust z-score":0.48,"fewer than 50 cells in well":"enough cells in well","Call":"inactive"}
{"gene":"Irgq","Tnf reporter robust z-score":0.68,"fewer than 50 cells in well":"enough cells in well","Call":"inactive"}
{"gene":"Dennd11","Tnf reporter robust z-score":-0.44,"fewer than 50 cells in well":"enough cells in well","Call":"inactive"}
{"gene":"Kif2c","Tnf reporter robust z-score":0.74,"fewer than 50 cells in well":"enough cells in well","Call":"inactive"}
{"gene":"Aifm2","Tnf reporter robust z-score":0.91,"fewer than 50 cells in well":"enough cells in well","Call":"inactive"}
{"gene":"Sox4","Tnf reporter robust z-score":0.22,"fewer than 50 cells in well":"enough cells in well","Call":"inactive"}
{"gene":"Dis3","Tnf reporter robust z-score":2.59,"fewer than 50 cells in well":"enough cells in well","Call":"inactive"}
{"gene":"Polr1c","Tnf reporter robust z-score":3.73,"fewer than 50 cells in well":"enough cells in well","Call":"active"}
{"gene":"Zfp78","fewer than 50 cells in well":"fewer than 50 cells per well; well left out of calls","Call":"inactive"}
{"gene":"Sprr2d","Tnf reporter robust z-score":0.06,"fewer than 50 cells in well":"enough cells in well","Call":"inactive"}
